{"sequences": {"note": "By UniProt entry, the sequences of proteins in these tests, tags left out.", "UniProt P17676": "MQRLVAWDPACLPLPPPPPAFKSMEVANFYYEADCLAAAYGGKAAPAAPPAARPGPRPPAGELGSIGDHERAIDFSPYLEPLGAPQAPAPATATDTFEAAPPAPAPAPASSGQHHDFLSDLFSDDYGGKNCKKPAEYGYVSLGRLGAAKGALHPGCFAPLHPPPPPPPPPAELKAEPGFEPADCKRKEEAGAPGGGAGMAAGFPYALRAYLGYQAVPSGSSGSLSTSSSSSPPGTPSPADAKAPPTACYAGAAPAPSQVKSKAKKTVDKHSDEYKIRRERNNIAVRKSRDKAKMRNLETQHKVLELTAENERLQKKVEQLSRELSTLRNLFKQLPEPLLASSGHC", "UniProt Q9UER7": "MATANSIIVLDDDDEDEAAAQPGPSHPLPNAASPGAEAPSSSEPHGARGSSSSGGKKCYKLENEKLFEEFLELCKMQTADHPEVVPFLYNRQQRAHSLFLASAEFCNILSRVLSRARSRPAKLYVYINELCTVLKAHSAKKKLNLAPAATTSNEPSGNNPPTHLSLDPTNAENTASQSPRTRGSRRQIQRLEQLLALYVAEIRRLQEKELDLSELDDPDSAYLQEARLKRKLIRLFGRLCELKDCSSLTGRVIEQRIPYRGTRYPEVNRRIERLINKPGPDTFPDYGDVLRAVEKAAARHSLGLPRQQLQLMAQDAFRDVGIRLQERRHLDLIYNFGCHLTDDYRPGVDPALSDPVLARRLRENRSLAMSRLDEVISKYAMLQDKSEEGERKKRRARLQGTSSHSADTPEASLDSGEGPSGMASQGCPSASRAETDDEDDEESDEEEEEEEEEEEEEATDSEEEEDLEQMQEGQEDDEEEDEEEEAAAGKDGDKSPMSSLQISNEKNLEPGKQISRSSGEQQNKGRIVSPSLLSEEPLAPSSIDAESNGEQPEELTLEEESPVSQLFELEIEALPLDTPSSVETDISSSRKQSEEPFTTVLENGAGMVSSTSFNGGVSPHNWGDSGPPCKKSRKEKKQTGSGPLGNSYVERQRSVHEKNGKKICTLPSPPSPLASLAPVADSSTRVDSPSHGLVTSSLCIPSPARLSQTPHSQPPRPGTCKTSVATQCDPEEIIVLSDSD"}, "source": "paper PMC6193355", "target": "CCAAT/enhancer-binding protein-β (HA-CEBP-β) (UniProt P17676)", "experiment": "co-IP; HA-CEBP-β transfected into DAXX-overexpressing ascites cells; lysed in NP-40 buffer; immunoprecipitated with anti-HA affinity beads for 4 h at 4 °C, washed in NTEN buffer; western blot with antibodies to DAXX and CEBP-β", "note": "No constants are given. Whether binding was seen depends on the method and setting. Binding seen in cells or lysates may run through a third protein. Some entries that bind do so weakly or less than the wild type."}
{"substance": "death-domain-associated protein (DAXX), GFP-DAXX (from UniProt Q9UER7 1-740)", "values": [{"measurement": "binding", "value": "binds"}]}
